Laboratory results from patent publication US20210261642A1, “SOLUBILITY OF GLP-1 PEPTIDE” (Novo Nordisk A/S, priority 2017, published 2021).
This continues a long series; more values of the same kind are listed elsewhere.

Assay: Assay (I): Determination of Solubility (96-well plate, pH 3.0-11.0, organic solvent 0-70% w/w, UV absorption at 280 nm)
Format: physicochemical
Conditions: Method 1 (evaporation)
Procedure: Assay (I): Determination of Solubility
96-Well Plate Preparation
96-well plates containing target peptide in a solid form were prepared in one of two ways:
Method 1 (evaporation): Addition of 100 μl stock solution of said peptide at a concentration of 4-6 mg/ml to each well of a 96-well half area plate (150 μl well size). Subsequently the solvent was evaporated by applying a vacuum until the solvent was completely removed.
Method 2 (precipitation): Addition of a certain volume of a stock solution of said peptide containing to each well of a 96-well half area plate followed by the addition of a certain volume of concentrated phosphoric acid to obtain a pH of 4.6 followed by addition of a certain volume of ethanol resulting in a final ethanol concentration of 20% v/v. Subsequently the plate was stored at 4° C. for 1 h and then centrifuged at 4,000 rpm for 20 min. Finally the supernatant was removed. The concentration of the stock solution was chosen in a way that the final amount of peptide after supernatant removal was >0.4 mg per well.
In both cases the stock solution was prepared by adding de-ionized water to a certain amount of powder of said peptide followed by a stepwise addition of small amounts of a concentrated sodium hydroxide solution until said peptide was completely in solution.
To determine solubility of a target peptide at different pH and organic solvent concentrations, two different buffer systems were used in independent experiments to cover the whole range from pH 3.0 to pH 11.0. Buffer system 1 covers pH 3.0-7.5 and buffer system 2 covers pH 7.5-11.0. For each buffer system 96 different solvent compositions were premixed in the following way: • 1. A low pH buffer (adjusted to either pH 3.0 or pH 7.5) and a high pH buffer (adjusted to either pH 7.5 or pH 11.0) were mixed at 8 different ratios to obtain values between pH 3.0 and pH 7.5 or pH 7.5 and pH 11.0, respectively. The total volume after mixing was 300 μl. • 2. 12 different amounts of organic solvent were then added to these buffers to obtain organic solvent (e.g. ethanol) concentrations between 0 and 70% w/w. • 3. Water was then added to obtain a total weight of 1.0 g of solvent in each well.
After preparing the 96 different solvent systems, 100 μl of each system was transferred to the 96-well plate containing the solid form of the target peptide (prepared as described in the section “96-well plate preparation”). The plate was then stored at a given temperature (between 5° C. and 70° C.) for a given time on a rotating shaker set to 400 rpm. At regular time intervals the plate was centrifuged (4,000 rpm for 10 min) and a 10 μl sample was taken from each well. The samples were then analysed by UV absorption at 280 nm for peptide quantification. Peptide concentration results are given as UV absorption at 280 nm of the sample subtracted UV absorption at 280 nm of a well comprising 10 μl water.
The buffers used were as follows: • Buffer system 1 (for the pH range from pH 3.0-7.5)
• Buffer system 2 (for the pH ranae from pH 7.5-11.0)
Solubility of liraglutide was determined using Assay (I) described herein. Liraglutide was prepared using Method 1 (evaporation) or Method 2 (precipitation) as described in subsection “96-well plate preparation”.

CCCCCCCCCCCCCCCC(=O)N[C@@H](CCC(=O)NCCCC[C@H](NC(=O)[C@H](C)NC(=O)[C@H](C)NC(=O)[C@H](CCC(N)=O)NC(=O)CNC(=O)[C@H](CCC(=O)O)NC(=O)[C@H](CC(C)C)NC(=O)[C@H](Cc1ccc(O)cc1)NC(=O)[C@H](CO)NC(=O)[C@H](CO)NC(=O)[C@@H](NC(=O)[C@H](CC(=O)O)NC(=O)[C@H](CO)NC(=O)[C@@H](NC(=O)[C@H](Cc1ccccc1)NC(=O)[C@@H](NC(=O)CNC(=O)[C@H](CCC(=O)O)NC(=O)[C@H](C)NC(=O)[C@@H](N)Cc1cnc[nH]1)[C@@H](C)O)[C@@H](C)O)C(C)C)C(=O)N[C@@H](CCC(=O)O)C(=O)N[C@@H](Cc1ccccc1)C(=O)N[C@H](C(=O)N[C@@H](C)C(=O)N[C@@H](Cc1c[nH]c2ccccc12)C(=O)N[C@@H](CC(C)C)C(=O)N[C@H](C(=O)N[C@@H](CCCNC(=N)N)C(=O)NCC(=O)N[C@@H](CCCNC(=N)N)C(=O)NCC(=O)O)C(C)C)[C@@H](C)CC)C(=O)O [liraglutide, Arg34,Lys26-(N-epsilon-(gamma-L-glutamyl(N-alfa-hexadecanoyl)))-GLP-1(7-37)]
Peptide concentration after 5 min (DMF 12.7% w/w, pH 9.5, RT): 2.3 mg/mL
Peptide concentration after 180 min (DMF 12.7% w/w, pH 9.5, RT): >4.0 mg/mL
Peptide concentration after 5 min (DMF 12.7% w/w, pH 10.0, RT): 2.3 mg/mL
Peptide concentration after 180 min (DMF 12.7% w/w, pH 10.0, RT): >4.0 mg/mL
Peptide concentration after 5 min (DMF 12.7% w/w, pH 10.5, RT): 2.7 mg/mL
Peptide concentration after 180 min (DMF 12.7% w/w, pH 10.5, RT): >4.0 mg/mL
Peptide concentration after 5 min (DMF 12.7% w/w, pH 11.0, RT): 1.7 mg/mL
Peptide concentration after 180 min (DMF 12.7% w/w, pH 11.0, RT): >4.0 mg/mL
Peptide concentration after 5 min (DMF 19.1% w/w, pH 3.1, RT): 0.2 mg/mL
Peptide concentration after 180 min (DMF 19.1% w/w, pH 3.1, RT): 0.4 mg/mL
Peptide concentration after 24 h (DMF 19.1% w/w, pH 3.1, RT): 1.3 mg/mL
Peptide concentration after 5 min (DMF 19.1% w/w, pH 4.8, RT): 0.2 mg/mL
Peptide concentration after 180 min (DMF 19.1% w/w, pH 4.8, RT): 0.5 mg/mL
Peptide concentration after 24 h (DMF 19.1% w/w, pH 4.8, RT): 0.3 mg/mL
Peptide concentration after 5 min (DMF 19.1% w/w, pH 5.8, RT): 0.3 mg/mL
Peptide concentration after 180 min (DMF 19.1% w/w, pH 5.8, RT): 2.6 mg/mL
Peptide concentration after 24 h (DMF 19.1% w/w, pH 5.8, RT): 1.2 mg/mL
Peptide concentration after 5 min (DMF 19.1% w/w, pH 6.3, RT): 0.9 mg/mL
Peptide concentration after 180 min (DMF 19.1% w/w, pH 6.3, RT): 2.0 mg/mL
Peptide concentration after 24 h (DMF 19.1% w/w, pH 6.3, RT): >4.0 mg/mL
Peptide concentration after 5 min (DMF 19.1% w/w, pH 6.7, RT): 0.8 mg/mL
Peptide concentration after 180 min (DMF 19.1% w/w, pH 6.7, RT): 1.3 mg/mL
Peptide concentration after 24 h (DMF 19.1% w/w, pH 6.7, RT): 2.1 mg/mL
Peptide concentration after 5 min (DMF 19.1% w/w, pH 6.9, RT): 1.0 mg/mL
Peptide concentration after 180 min (DMF 19.1% w/w, pH 6.9, RT): 2.8 mg/mL
Peptide concentration after 24 h (DMF 19.1% w/w, pH 6.9, RT): >4.0 mg/mL
Peptide concentration after 5 min (DMF 19.1% w/w, pH 7.2, RT): 0.7 mg/mL
Peptide concentration after 180 min (DMF 19.1% w/w, pH 7.2, RT): 2.3 mg/mL
Peptide concentration after 24 h (DMF 19.1% w/w, pH 7.2, RT): >4.0 mg/mL
Peptide concentration after 5 min (DMF 19.1% w/w, pH 7.5, RT): 2.3 mg/mL
Peptide concentration after 180 min (DMF 19.1% w/w, pH 7.5, RT): >4.0 mg/mL
Peptide concentration after 5 min (DMF 19.1% w/w, pH 8.0, RT): 1.4 mg/mL
Peptide concentration after 180 min (DMF 19.1% w/w, pH 8.0, RT): >4.0 mg/mL
Peptide concentration after 5 min (DMF 19.1% w/w, pH 8.5, RT): 1.8 mg/mL
Peptide concentration after 180 min (DMF 19.1% w/w, pH 8.5, RT): >4.0 mg/mL
Peptide concentration after 5 min (DMF 19.1% w/w, pH 9.0, RT): 1.9 mg/mL
Peptide concentration after 180 min (DMF 19.1% w/w, pH 9.0, RT): >4.0 mg/mL
Peptide concentration after 5 min (DMF 19.1% w/w, pH 9.5, RT): 2.6 mg/mL
Peptide concentration after 180 min (DMF 19.1% w/w, pH 9.5, RT): >4.0 mg/mL
Peptide concentration after 5 min (DMF 19.1% w/w, pH 10.0, RT): 2.4 mg/mL
Peptide concentration after 180 min (DMF 19.1% w/w, pH 10.0, RT): >4.0 mg/mL
Peptide concentration after 5 min (DMF 19.1% w/w, pH 10.5, RT): 2.3 mg/mL
Peptide concentration after 180 min (DMF 19.1% w/w, pH 10.5, RT): >4.0 mg/mL
Peptide concentration after 5 min (DMF 19.1% w/w, pH 11.0, RT): 1.5 mg/mL
Peptide concentration after 180 min (DMF 19.1% w/w, pH 11.0, RT): >4.0 mg/mL
Peptide concentration after 5 min (DMF 25.5% w/w, pH 3.1, RT): 0.2 mg/mL
Peptide concentration after 180 min (DMF 25.5% w/w, pH 3.1, RT): 0.3 mg/mL
Peptide concentration after 24 h (DMF 25.5% w/w, pH 3.1, RT): 1.0 mg/mL
Peptide concentration after 5 min (DMF 25.5% w/w, pH 4.8, RT): 0.2 mg/mL
Peptide concentration after 180 min (DMF 25.5% w/w, pH 4.8, RT): 0.3 mg/mL
Peptide concentration after 24 h (DMF 25.5% w/w, pH 4.8, RT): 0.2 mg/mL
Peptide concentration after 5 min (DMF 25.5% w/w, pH 5.8, RT): 0.4 mg/mL
Peptide concentration after 180 min (DMF 25.5% w/w, pH 5.8, RT): 2.1 mg/mL
Peptide concentration after 24 h (DMF 25.5% w/w, pH 5.8, RT): 1.3 mg/mL
Peptide concentration after 5 min (DMF 25.5% w/w, pH 6.3, RT): 0.7 mg/mL
Peptide concentration after 180 min (DMF 25.5% w/w, pH 6.3, RT): 1.5 mg/mL
Peptide concentration after 24 h (DMF 25.5% w/w, pH 6.3, RT): >4.0 mg/mL
Peptide concentration after 5 min (DMF 25.5% w/w, pH 6.7, RT): 0.7 mg/mL
Peptide concentration after 180 min (DMF 25.5% w/w, pH 6.7, RT): 1.8 mg/mL
Peptide concentration after 24 h (DMF 25.5% w/w, pH 6.7, RT): 2.7 mg/mL
Peptide concentration after 5 min (DMF 25.5% w/w, pH 6.9, RT): 0.9 mg/mL
Peptide concentration after 180 min (DMF 25.5% w/w, pH 6.9, RT): 2.2 mg/mL
Peptide concentration after 24 h (DMF 25.5% w/w, pH 6.9, RT): >4.0 mg/mL
Peptide concentration after 5 min (DMF 25.5% w/w, pH 7.2, RT): 0.4 mg/mL
Peptide concentration after 180 min (DMF 25.5% w/w, pH 7.2, RT): 1.7 mg/mL
Peptide concentration after 24 h (DMF 25.5% w/w, pH 7.2, RT): >4.0 mg/mL
Peptide concentration after 5 min (DMF 25.5% w/w, pH 7.5, RT): 2.7 mg/mL
Peptide concentration after 180 min (DMF 25.5% w/w, pH 7.5, RT): >4.0 mg/mL
Peptide concentration after 5 min (DMF 25.5% w/w, pH 8.0, RT): 1.7 mg/mL
Peptide concentration after 180 min (DMF 25.5% w/w, pH 8.0, RT): >4.0 mg/mL
Peptide concentration after 5 min (DMF 25.5% w/w, pH 8.5, RT): 1.9 mg/mL
Peptide concentration after 180 min (DMF 25.5% w/w, pH 8.5, RT): >4.0 mg/mL
Peptide concentration after 5 min (DMF 25.5% w/w, pH 9.0, RT): 1.3 mg/mL
Peptide concentration after 180 min (DMF 25.5% w/w, pH 9.0, RT): >4.0 mg/mL
Peptide concentration after 5 min (DMF 25.5% w/w, pH 9.5, RT): 3.1 mg/mL
Peptide concentration after 180 min (DMF 25.5% w/w, pH 9.5, RT): >4.0 mg/mL
Peptide concentration after 5 min (DMF 25.5% w/w, pH 10.0, RT): 3.2 mg/mL
Peptide concentration after 180 min (DMF 25.5% w/w, pH 10.0, RT): >4.0 mg/mL
Peptide concentration after 5 min (DMF 25.5% w/w, pH 10.5, RT): 2.9 mg/mL
Peptide concentration after 180 min (DMF 25.5% w/w, pH 10.5, RT): >4.0 mg/mL
Peptide concentration after 5 min (DMF 25.5% w/w, pH 11.0, RT): 2.0 mg/mL
Peptide concentration after 180 min (DMF 25.5% w/w, pH 11.0, RT): >4.0 mg/mL
Peptide concentration after 5 min (DMF 31.8% w/w, pH 3.1, RT): 0.2 mg/mL
Peptide concentration after 180 min (DMF 31.8% w/w, pH 3.1, RT): 0.2 mg/mL
Peptide concentration after 24 h (DMF 31.8% w/w, pH 3.1, RT): 0.6 mg/mL
Peptide concentration after 5 min (DMF 31.8% w/w, pH 4.8, RT): 0.2 mg/mL
Peptide concentration after 180 min (DMF 31.8% w/w, pH 4.8, RT): 0.3 mg/mL
Peptide concentration after 24 h (DMF 31.8% w/w, pH 4.8, RT): 0.3 mg/mL
Peptide concentration after 5 min (DMF 31.8% w/w, pH 5.8, RT): 0.3 mg/mL
Peptide concentration after 180 min (DMF 31.8% w/w, pH 5.8, RT): 1.1 mg/mL
Peptide concentration after 24 h (DMF 31.8% w/w, pH 5.8, RT): 0.8 mg/mL
Peptide concentration after 5 min (DMF 31.8% w/w, pH 6.3, RT): 0.5 mg/mL
Peptide concentration after 180 min (DMF 31.8% w/w, pH 6.3, RT): 0.9 mg/mL
Peptide concentration after 24 h (DMF 31.8% w/w, pH 6.3, RT): 2.6 mg/mL
Peptide concentration after 5 min (DMF 31.8% w/w, pH 6.7, RT): 0.6 mg/mL
Peptide concentration after 180 min (DMF 31.8% w/w, pH 6.7, RT): 1.4 mg/mL
Peptide concentration after 24 h (DMF 31.8% w/w, pH 6.7, RT): 2.0 mg/mL
Peptide concentration after 5 min (DMF 31.8% w/w, pH 6.9, RT): 0.9 mg/mL
Peptide concentration after 180 min (DMF 31.8% w/w, pH 6.9, RT): 1.8 mg/mL
